According to PMC3465347, “Regulation of NF-κB Activation through a Novel PI-3K-Independent and PKA/Akt-Dependent Pathway in Human Umbilical Vein Endothelial Cells” (PLoS ONE, 2012):
These are yes or no findings as the source states them, for the method shown. Binding seen in cells or lysates may run through a third protein. Binding can be weak; no strength is given.

Target: T1, IKK-β (human (endogenous in HUVECs)) (UniProt O14920)
T1 sequence: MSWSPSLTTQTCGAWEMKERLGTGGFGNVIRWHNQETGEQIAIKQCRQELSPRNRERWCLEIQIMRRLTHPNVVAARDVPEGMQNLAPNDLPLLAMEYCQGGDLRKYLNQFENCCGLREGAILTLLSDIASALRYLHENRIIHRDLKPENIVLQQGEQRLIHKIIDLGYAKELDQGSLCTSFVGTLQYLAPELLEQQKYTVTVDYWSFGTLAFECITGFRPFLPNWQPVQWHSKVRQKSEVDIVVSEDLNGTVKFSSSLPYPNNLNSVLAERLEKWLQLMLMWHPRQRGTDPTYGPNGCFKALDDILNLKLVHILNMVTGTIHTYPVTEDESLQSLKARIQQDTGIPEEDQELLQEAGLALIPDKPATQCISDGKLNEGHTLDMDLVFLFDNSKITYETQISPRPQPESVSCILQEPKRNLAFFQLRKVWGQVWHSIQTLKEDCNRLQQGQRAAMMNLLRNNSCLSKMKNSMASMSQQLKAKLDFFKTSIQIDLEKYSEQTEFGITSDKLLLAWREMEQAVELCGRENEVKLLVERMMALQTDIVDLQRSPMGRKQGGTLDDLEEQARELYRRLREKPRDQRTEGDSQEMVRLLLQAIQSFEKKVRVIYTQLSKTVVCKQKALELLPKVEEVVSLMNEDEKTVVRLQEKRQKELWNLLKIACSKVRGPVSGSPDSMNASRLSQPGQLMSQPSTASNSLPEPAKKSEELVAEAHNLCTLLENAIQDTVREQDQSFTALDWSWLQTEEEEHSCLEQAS
Assay: co-IP; total cell extracts of HUVECs induced with TNF-α (10 ng/ml) for the indicated times, with or without MPTAG pretreatment; immunoprecipitated with anti-IKK-β antibody and protein G beads at 4°C; western blot with anti-Akt and anti-IKK-β; lysis buffer 50 mM HEPES pH 7.6, 100 mM NaCl, 1% NP-40

binding: binds
Substance: Akt (human (endogenous in HUVECs))
